Earlier results in US20210205254A1, “OMEGA-3 PENTAENOIC ACID COMPOSITIONS AND METHODS OF USE” (Matinas BioPharma, Inc., priority 2012, published 2021).
Like-named read-outs stand apart in the source and are kept apart here. At least one compound was matched to its structure with a doubt left.

Tests used:
[1] = system: patients on statin with high triglycerides (TG 200-499 mg/dL); settings: for Apo-B % change vs. Placebo / HDL-C % change vs. Placebo / LDL-C % change vs. Placebo / Non-HDL-C % change vs. Placebo / TG % change vs. Placebo / VLDL-C % change vs. Placebo: on statin, TG 200-499 mg/dL
[2] = system: patients with very high triglycerides (>500 mg/dL); settings: for Apo-B % change vs. Placebo / HDL-C % change vs. Placebo / LDL-C % change vs. Placebo / Non-HDL-C % change vs. Placebo / TG % change vs. Placebo / Total-C % change vs. Placebo / VLDL-C % change vs. Placebo: TG >500 mg/dL

## CC/C=C\C/C=C\C/C=C\C/C=C\C/C=C\CCCC(=O)OCC [Vascepa, EPA ethyl ester]
[1]; 2 gram/day
  Apo-B % change vs. Placebo: −3.8%
  HDL-C % change vs. Placebo: −2.2%
  LDL-C % change vs. Placebo: −3.6%
  Non-HDL-C % change vs. Placebo: −5.5%
  TG % change vs. Placebo: −10.1%
  VLDL-C % change vs. Placebo: −10.5%
[1]; 4 gr/day, patients on statin therapy with high triglycerides
  effect on LDL-C (in words): decreased
[1]; 4 gram/day
  Apo-B % change vs. Placebo: −9.3%
  HDL-C % change vs. Placebo: −4.5%
  LDL-C % change vs. Placebo: −6.3%
  Non-HDL-C % change vs. Placebo: −13.6%
  TG % change vs. Placebo: −21.5%
  VLDL-C % change vs. Placebo: −24.4%
[1]; four 1-gram capsules, ANCHOR study
  effect on fasting TG (in words): significantly reduced
[2]; 2 gram/day
  Apo-B % change vs. Placebo: −2.6%
  HDL-C % change vs. Placebo: 1.5%
  LDL-C % change vs. Placebo: 5.2%
  Non-HDL-C % change vs. Placebo: −8.1%
  TG % change vs. Placebo: −19.7%
  Total-C % change vs. Placebo: −6.8%
  VLDL-C % change vs. Placebo: −15.3%
[2]; 4 gram/day
  Apo-B % change vs. Placebo: −8.5%
  HDL-C % change vs. Placebo: −3.6%
  LDL-C % change vs. Placebo: −2.3%
  Non-HDL-C % change vs. Placebo: −17.7%
  TG % change vs. Placebo: −33.1%
  Total-C % change vs. Placebo: −16.3%
  VLDL-C % change vs. Placebo: −28.6%
[2]; four 1-gram capsules, MARINE study
  effect on fasting TG (in words): significantly reduced
[2]; patients with very high triglycerides
  effect on LDL-C (in words): slightly and non-significantly changed
